Values from PubChem BioAssay AID1259308 (NCATS, 2017)

Assay: 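Candidate targets for better recombinant protein yield in mammalian cells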 (primary screen)
Cell system: human HEK293 embryonic kidney cells stably expressing firefly luciferase (HEK-CMV-Luc2-Hygro)
Reagent: single siRNA against human genes, 0.8 pmol siRNA per well
Timing: 72 h
Measurement: 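Reporter luminescence and viable-cell signal on separate replicate plates, given as percent of non-targeting control and median/MAD z-scores, plus per-cell luciferase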
Reading the numbers: total luciferase, z-score and total luciferase, % of control: higher = more reporter protein produced; luciferase per cell, z-score: higher = more reporter output per viable cell
Hit rule: 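An siRNA counts as active if its total luciferase robust z-score exceeds 3; genes with two or more such siRNAs out of three were retested with fresh siRNAs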
Meaning of the calls: active = raised luciferase; inactive = no rise
In all, the deposit lists about 59,000 reagents; below is an unselected part. About 1,510 of all reagents (2.6%) count as active. 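Calls use total luciferase alone and ignore viability, so some active siRNAs may act by altering cell number.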 Unmarked entries are inactive. Reagents against one gene are numbered here. Further read-outs or replicates are left out here. Reagent sequences are not shown.

target gene	reagent	total luciferase, z-score	total luciferase, % of control	luciferase per cell, z-score
ZNF74	1	-0.141	79.1	0.101
ZNF74	2	-0.229	77.3	-0.0258
ZNF74	3	-0.621	69.5	-0.781
ARIH2OS	1	-0.137	79.2	-0.467
ARIH2OS	2	-0.301	75.9	-0.5
ARIH2OS	3	-0.113	79.6	0.0448
KRTAP15-1	1	-0.0424	81	-0.672
KRTAP15-1	2	1.72	116	1.47
KRTAP15-1	3	-0.308	75.8	-0.4
PYCR2	1	0.547	92.8	0.273
PYCR2	2	0.226	86.4	-0.496
PYCR2	3	-0.41	73.7	-0.515
RIOX2	1	0.0355	82.6	0.673
RIOX2	2	-0.55	70.9	-0.806
RIOX2	3	0.852	98.8	-0.115
PSMA7	1	-0.718	67.6	0.692
PSMA7	2	-0.905	63.9	0.903
PSMA7	3	-1.69	48.3	-0.612
DDX52	1	-0.949	63	-1.12
DDX52	2	0.934	100	0.567
DDX52	3	1.59	114	1.71
TPP2	1	0.798	97.8	0.445
TPP2	2	-0.0733	80.4	-0.361
TPP2	3	-1.61	49.9	-1.24
CLCC1	1	0.109	84.1	0.518
CLCC1	2	0.279	87.4	0.122
CLCC1	3	-0.848	65	-0.184
GDA	1	0.624	94.3	0.344
GDA	2	2.11	124	0.957
GDA	3	-0.602	69.9	-0.565
MYBPC2	1	2.66	135	2.3
MYBPC2	2	0.0436	82.8	0.537
MYBPC2	3	-0.277	76.4	-0.556
FAM81B	1	0.739	96.6	0.161
FAM81B	2	0.682	95.5	0.0778
FAM81B	3	-0.839	65.2	-0.109
MAB21L2	1	2.06	123	1.56
MAB21L2	2	0.25	86.9	0.0586
MAB21L2	3	0.312	88.1	-0.54
TRAPPC1	1	3.55 (active)	152	2.46
TRAPPC1	2	-0.671	68.5	-0.351
TRAPPC1	3	-0.198	77.9	-0.395
CCND3	1	-1.22	57.5	-1.49
CCND3	2	0.416	90.2	-0.128
CCND3	3	0.265	87.2	0.21
C10orf95	1	0.13	84.5	1.43
C10orf95	2	-0.653	68.9	-0.768
C10orf95	3	0.191	85.7	-0.463
TMEM9B	1	0.989	102	1.57
TMEM9B	2	-2.68	28.6	-2.54
TMEM9B	3	0.897	99.7	1.29
CFL1	1	-0.626	69.4	0.108
CFL1	2	-1.5	52.1	-1.41
CFL1	3	2.29	127	1.28
CD82	1	0.56	93	0.7
CD82	2	0.525	92.3	0.338
CD82	3	2.19	125	1.22

Looked up above.
Under “total luciferase, % of control”, C10orf95 #2 reads 68.9
TPP2 #1, luciferase per cell, z-score → 0.445
Under “luciferase per cell, z-score”, CLCC1 #1 has 0.518
For “luciferase per cell, z-score”, FAM81B #3 reads -0.109
MAB21L2 #1, total luciferase, z-score → 2.06
Under “total luciferase, % of control”, TPP2 #2 is entered as 80.4
